Experimental data published in the supplement of paper PMC4604168 (melanoma cell lines).
Some of the results follow. Repeats are few or missing, and single values can be far off.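 The apoptosis fraction was the count of cleaved-PARP antibody-stained nuclei relative to all DNA-stained nuclei, imaged in 1,536-well plates. Screening doses were set so most cells survived, and baseline and induced cleaved-PARP levels vary greatly across cell lines.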

What was measured:
Assay in all cases: cleaved PARP positive nuclei fraction relative to DMSO control; melanoma cells; higher = more apoptosis
Settings in all cases: library dose: low library concentration; 72 h
WM115 = test system: WM115
WM1716 = test system: WM1716
WM1745 = test system: WM1745
WM3526 = test system: WM3526
WM3619 = test system: WM3619
WM451Lu = test system: WM451Lu

Structure (SMILES) | cleaved PARP positive nuclei fraction (WM115) | cleaved PARP positive nuclei fraction (WM1716) | cleaved PARP positive nuclei fraction (WM1745) | cleaved PARP positive nuclei fraction (WM3526) | cleaved PARP positive nuclei fraction (WM3619) | cleaved PARP positive nuclei fraction (WM451Lu)
Cn1nnc2c(C(N)=O)ncn2c1=O [temozolomide] + O=C(CCCCCCC(=O)Nc1ccccc1)NO [vorinostat] (first compound 2 µM, partner dose 0.08 µM) | 59.4% | 81.8% | 87.7% | 154% | 107% | 64.3%
C=CCn1c(=O)c2cnc(Nc3ccc(N4CCN(C)CC4)cc3)nc2n1-c1cccc(C(C)(C)O)n1 + CCCCCCCCCCCC1=C(O)C(=O)C=C(O)C1=O [Embelin] (first compound 0.02 µM, partner dose 1.2 µM) | 89.5% | 192% | 136% | 68.4% | 105% | 74.2%
Cn1c(Nc2ccc(C(F)(F)F)cc2)nc2cc(Oc3ccnc(-c4ncc(C(F)(F)F)[nH]4)c3)ccc21 + COc1ccc(-c2ccc3c(N4CCOCC4)nc(N4C[C@@H](C)O[C@@H](C)C4)nc3n2)cc1CO [KU0063794] (first compound 0.08 µM, partner dose 0.02 µM) | 1030% | 215% | 170% | 309% | 150% | 228%
Nc1cccc2c1CN(C1CCC(=O)NC1=O)C2=O (centres undefined) [lenalidomide] + COc1cc2ncnc(Nc3ccc(Oc4ccccc4)cc3)c2cc1OC [SrcI1] (first compound 1 µM, partner dose 2 µM) | 102% | 38.7% | 108% | 240% | 71% | 52.3%
OCc1c[nH]c2ccccc12 [Indole-3-carbinol] + COc1ccc(COc2ccc(Cc3cnc(N)nc3N)cc2OC)cc1 [GW2580] (first compound 0.8 µM, partner dose 1 µM) | 205% | 211% | 81.3% | 64.2% | 86.9% | 36%
OCc1c[nH]c2ccccc12 [Indole-3-carbinol] + c1cc(-c2cnn3cc(-c4ccc(OCCN5CCCCC5)cc4)cnc23)ccn1 [Dorsomorphin] (first compound 0.8 µM, partner dose 0.4 µM) | 66.7% | 104% | 93.3% | 67% | 94.3% | 73%
OCCn1cc(-c2cnc3nnn(Cc4ccc5ncccc5c4)c3n2)cn1 + COc1cc(N2CCC(N3CCN(C)CC3)CC2)ccc1Nc1ncc(Cl)c(Nc2ccccc2S(=O)(=O)C(C)C)n1 [NVP-TAE684] (first compound 1 µM, partner dose 0.08 µM) | 102% | 94.8% | 112% | 88.9% | 93.6% | 397%
OCCn1cc(-c2cnc3nnn(Cc4ccc5ncccc5c4)c3n2)cn1 + O=C1NC(=O)/C(=C/c2ccc(-c3ccc(F)cc3O)o2)S1 [AS252424] (first compound 1 µM, partner dose 1 µM) | 70.6% | 155% | 92.9% | 76.9% | 123% | 67.5%
CC(C)(C)c1cnc(CSc2cnc(NC(=O)C3CCNCC3)s2)o1 + O=S(=O)(c1ccccc1)N(CC(F)(F)F)c1ccc(C(O)(C(F)(F)F)C(F)(F)F)cc1 [T0901317] (first compound 0.01 µM, partner dose 1.4 µM) | 38.2% | 90.7% | 102% | 316% | 83.7% | 214%
C[C@]1(c2nc3c(C(N)=O)cccc3[nH]2)CCCN1 [Veliparib] + NCC(=O)Nc1ccc(-n2nc(C(F)(F)F)cc2-c2ccc3c(ccc4ccccc43)c2)cc1 [OSU03012] (first compound 1.4 µM, partner dose 1 µM) | 59.9% | 78.6% | 92.7% | 115% | 106% | 80.6%
C#Cc1cccc(Nc2ncnc3cc(OCCOC)c(OCCOC)cc23)c1 [erlotinib] + COc1ccc(-c2ccc3c(N4CCOCC4)nc(N4C[C@@H](C)O[C@@H](C)C4)nc3n2)cc1CO [KU0063794] (first compound 0.8 µM, partner dose 0.02 µM) | 89.8% | 174% | 139% | 80.6% | 216% | 51.3%
C#Cc1cccc(Nc2ncnc3cc(OCCOC)c(OCCOC)cc23)c1 [erlotinib] + Cc1ccc(NC(=O)c2cccc(N(C)C)c2)cc1NC(=O)c1ccc(O)cc1 [ZM336372] (first compound 0.8 µM, partner dose 2 µM) | 47.8% | 16.3% | 104% | 63.7% | 293% | 74.1%
Nc1cccc2c1CN(C1CCC(=O)NC1=O)C2=O (centres undefined) [lenalidomide] + O=S(=O)(c1ccccc1)N(CC(F)(F)F)c1ccc(C(O)(C(F)(F)F)C(F)(F)F)cc1 [T0901317] (first compound 1 µM, partner dose 1.4 µM) | 285% | 148% | 121% | 127% | 96.2% | 162%
C[C@]1(c2nc3c(C(N)=O)cccc3[nH]2)CCCN1 [Veliparib] + COc1ccc(-c2ccc3c(N4CCOCC4)nc(N4C[C@@H](C)O[C@@H](C)C4)nc3n2)cc1CO [KU0063794] (first compound 1.4 µM, partner dose 0.02 µM) | 172% | 139% | 103% | 76% | 100% | 385%
C=CCNC1=C2C[C@@H](C)C[C@H](OC)[C@H](O)[C@@H](C)/C=C(\C)[C@H](OC(N)=O)[C@@H](OC)/C=C\C=C(/C)C(=O)NC(=CC1=O)C2=O [Tanespimycin] + Cn1c(Nc2ccc(C(F)(F)F)cc2)nc2cc(Oc3ccnc(-c4ncc(C(F)(F)F)[nH]4)c3)ccc21 [CHIR265] (first compound 0.002 µM, partner dose 0.08 µM) | 554% | 54.2% | 141% | 61.4% | 136% | 235%
CC(=O)c1c(C)c2cnc(Nc3ccc(N4CCNCC4)cn3)nc2n(C2CCCC2)c1=O [palbociclib] + OCCn1cc(-c2cnc3nnn(Cc4ccc5ncccc5c4)c3n2)cn1 [PF04217903] (first compound 0.04 µM, partner dose 1 µM) | 260% | 144% | 124% | 207% | 118% | 44.4%
CC(=O)c1c(C)c2cnc(Nc3ccc(N4CCNCC4)cn3)nc2n(C2CCCC2)c1=O [palbociclib] + Cc1ccc(NC(=O)c2cccc(N(C)C)c2)cc1NC(=O)c1ccc(O)cc1 [ZM336372] (first compound 0.04 µM, partner dose 2 µM) | 107% | 65.4% | 123% | 48.2% | 134% | 28.7%
COc1cc(Nc2ncc(F)c(Nc3ccc4c(n3)NC(=O)C(C)(C)O4)n2)cc(OC)c1OC [Tamatinib] + COc1ccc2c(c1)CCC1C2CCC2(C)C(NCCCCCCN3C(=O)C=CC3=O)CCC12 [U73122] (first compound 0.4 µM, partner dose 0.4 µM) | 306% | 90.4% | 149% | 76.6% | 78.4% | 123%
CC(=O)c1c(C)c2cnc(Nc3ccc(N4CCNCC4)cn3)nc2n(C2CCCC2)c1=O [palbociclib] + COCC[n+]1c2c(n(Cc3cnccn3)c1C)C(=O)c1ccccc1C2=O [YM155] (first compound 0.04 µM, partner dose 0.0004 µM) | 83.1% | 94.5% | 122% | 107% | 103% | 75.2%
Cn1nnc2c(C(N)=O)ncn2c1=O [temozolomide] + COc1cc(Nc2ncc(F)c(Nc3ccc4c(n3)NC(=O)C(C)(C)O4)n2)cc(OC)c1OC [Tamatinib] (first compound 2 µM, partner dose 0.4 µM) | 126% | 180% | 124% | 39.2% | 228% | 101%
COc1cc(Nc2ncc(F)c(Nc3ccc4c(n3)NC(=O)C(C)(C)O4)n2)cc(OC)c1OC [Tamatinib] + Oc1cc(-c2nc(-c3ccccc3)[nH]c2-c2ccncc2)ccc1Cl [L779450] (first compound 0.4 µM, partner dose 0.2 µM) | 283% | 175% | 208% | 116% | 79.4% | 63.9%
Clc1ccc(Nc2nnc(Cc3ccncc3)c3ccccc23)cc1 [vatalanib] + N#Cc1c(O)c2c(-c3ccc(-c4ccccc4O)cc3)csc2[nH]c1=O [A769662] (first compound 2 µM, partner dose 2 µM) | 204% | 167% | 97.5% | 79.7% | 108% | 403%
OCCn1cc(-c2cnc3nnn(Cc4ccc5ncccc5c4)c3n2)cn1 + NCC(=O)Nc1ccc(-n2nc(C(F)(F)F)cc2-c2ccc3c(ccc4ccccc43)c2)cc1 [OSU03012] (first compound 1 µM, partner dose 1 µM) | 77.5% | 122% | 93.5% | 238% | 94.3% | 140%
CC(=O)c1c(C)c2cnc(Nc3ccc(N4CCNCC4)cn3)nc2n(C2CCCC2)c1=O [palbociclib] + COc1ccc2c(c1)CCC1C2CCC2(C)C(NCCCCCCN3C(=O)C=CC3=O)CCC12 [U73122] (first compound 0.04 µM, partner dose 0.4 µM) | 75.9% | 142% | 114% | 118% | 13.2% | 106%

A second format for part of the listing above:
Nc1cccc2c1CN(C1CCC(=O)NC1=O)C2=O (centres undefined) [lenalidomide] + O=S(=O)(c1ccccc1)N(CC(F)(F)F)c1ccc(C(O)(C(F)(F)F)C(F)(F)F)cc1 [T0901317] (first compound 1 µM, partner dose 1.4 µM)
  cleaved PARP positive nuclei fraction (WM115): 285%; cleaved PARP positive nuclei fraction (WM1716): 148%; cleaved PARP positive nuclei fraction (WM1745): 121%; cleaved PARP positive nuclei fraction (WM3526): 127%; cleaved PARP positive nuclei fraction (WM3619): 96.2%; cleaved PARP positive nuclei fraction (WM451Lu): 162%
C[C@]1(c2nc3c(C(N)=O)cccc3[nH]2)CCCN1 [Veliparib] + COc1ccc(-c2ccc3c(N4CCOCC4)nc(N4C[C@@H](C)O[C@@H](C)C4)nc3n2)cc1CO [KU0063794] (first compound 1.4 µM, partner dose 0.02 µM)
  cleaved PARP positive nuclei fraction (WM115): 172%; cleaved PARP positive nuclei fraction (WM1716): 139%; cleaved PARP positive nuclei fraction (WM1745): 103%; cleaved PARP positive nuclei fraction (WM3526): 76%; cleaved PARP positive nuclei fraction (WM3619): 100%; cleaved PARP positive nuclei fraction (WM451Lu): 385%
